PubChem BioAssay AID1259308 – NCATS – 2017

Aim: 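Candidate targets for better recombinant protein yield in mammalian cells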 (primary screen)
Cells: human HEK293 embryonic kidney cells stably expressing firefly luciferase (HEK-CMV-Luc2-Hygro)
Reagents: single siRNA against human genes, 0.8 pmol siRNA per well
Duration: 72 h
Measurement: 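Reporter luminescence and viable-cell signal on separate replicate plates, given as percent of non-targeting control and median/MAD z-scores, plus per-cell luciferase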
Reading the numbers: total luciferase, z-score and total luciferase, % of control: higher = more reporter protein produced; luciferase per cell, z-score: higher = more reporter output per viable cell; viable cells, % of control: higher = more viable cells
Hit rule: 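Active when the median/MAD z-score for overall luciferase is greater than 3; a gene was taken forward for validation with new siRNAs if at least two of its three siRNAs passed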
Calls: active = raised luciferase; inactive = no rise
Here is a random part of about 59,000 reagents. Of all reagents, about 1,510 (2.6%) got an active call. 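Calls use total luciferase alone and ignore viability, so some active siRNAs may act by altering cell number.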 Entries without a mark were called inactive. Reagents against one gene are numbered here.

gene knocked down	reagent no.	total luciferase, z-score	total luciferase, % of control	luciferase per cell, z-score	viable cells, % of control
TRABD (TraB domain containing)	1	0.636	94.5	0.341	96.6
TRABD (TraB domain containing)	2	0.649	94.8	0.627	89.8
TRABD (TraB domain containing)	3	2.22	126	1.55	93.7
PDS5B (PDS5 cohesin associated factor B)	1	0.492	91.7	0.468	90.6
PDS5B (PDS5 cohesin associated factor B)	2	-0.16	78.7	-0.557	102
PDS5B (PDS5 cohesin associated factor B)	3	-0.0743	80.4	0.197	85.3
GPHRA (golgi pH regulator A)	1	-0.35	74.9	-0.355	91.9
GPHRA (golgi pH regulator A)	2	-1.15	58.9	-0.106	67.7
GPHRA (golgi pH regulator A)	3	2.28	127	1.2	104
CICP26 (capicua transcriptional repressor pseudogene 26)	1	0.174	85.3	0.259	89.1
CICP26 (capicua transcriptional repressor pseudogene 26)	2	-0.115	79.6	0.288	82.5
CICP26 (capicua transcriptional repressor pseudogene 26)	3	0.887	99.5	0.814	89.8
CD151 (CD151 molecule (Raph blood group))	1	1.19	106	0.989	90.9
CD151 (CD151 molecule (Raph blood group))	2	0.314	88.1	-0.715	119
CD151 (CD151 molecule (Raph blood group))	3	-1.72	47.7	-2.33	98.3
STAT1 (signal transducer and activator of transcription 1)	1	-0.395	74	-0.601	96.9
STAT1 (signal transducer and activator of transcription 1)	2	0.0202	82.3	-0.629	109
STAT1 (signal transducer and activator of transcription 1)	3	0.158	85	-0.532	109
ACTL6A (actin like 6A)	1	2.45	131	2.52	75.2
ACTL6A (actin like 6A)	2	3.55 (active)	152	2.46	89.1
ACTL6A (actin like 6A)	3	1.78	117	1.2	95.6
LINC01750 (long independently transcribed non-coding RNA 1750)	1	0.426	90.4	0.174	96.5
LINC01750 (long independently transcribed non-coding RNA 1750)	2	-0.936	63.3	-0.767	86.5
LINC01750 (long independently transcribed non-coding RNA 1750)	3	0.197	85.8	-0.0981	98.4
RPL31P31 (ribosomal protein L31 pseudogene 31)	1	-1.36	54.9	-1.13	82.5
RPL31P31 (ribosomal protein L31 pseudogene 31)	2	1.42	110	1.54	82
RPL31P31 (ribosomal protein L31 pseudogene 31)	3	-1.68	48.4	-1.46	79.4
LAMC3 (laminin subunit gamma 3)	1	1.86	119	0.835	107
LAMC3 (laminin subunit gamma 3)	2	-1.17	58.6	-0.541	75.5
LAMC3 (laminin subunit gamma 3)	3	1.63	114	1.34	89.9
PIK3CG	1	1.19	105	2.32	64
PIK3CG	2	-0.576	70.4	-0.335	86
PIK3CG	3	0.146	84.8	-0.315	103
AP4E1 (adaptor related protein complex 4 subunit epsilon 1)	1	0.286	87.6	-0.19	103
AP4E1 (adaptor related protein complex 4 subunit epsilon 1)	2	0.358	89	0.562	85.8
AP4E1 (adaptor related protein complex 4 subunit epsilon 1)	3	-0.825	65.5	-0.0335	73.8
TTBK2 (tau tubulin kinase 2)	1	-1.67	48.7	-0.681	65.2
TTBK2 (tau tubulin kinase 2)	2	-0.394	74.1	-0.299	89.5
TTBK2 (tau tubulin kinase 2)	3	-0.657	68.8	0.0536	75.8

3 neighbouring records from above, for reference:
gene knocked down	reagent no.	total luciferase, z-score	total luciferase, % of control	luciferase per cell, z-score	viable cells, % of control
PIK3CG	1	1.19	105	2.32	64
PIK3CG	2	-0.576	70.4	-0.335	86
PIK3CG	3	0.146	84.8	-0.315	103
